# The whole screen tested about 2,000 compounds, of which fewer than 10 were called active.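 The calls were made as follows: active = growth inhibition of at least 75% in every replicate, which also brings the mean inhibition to 75% or more; inconclusive = mean inhibition 75% or more but some replicate under 75%; inactive = the rest.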 The list shows a part of the results.
# Test: growth inhibition of PfHsp90-dependent yeast, primary screen, antimalarial PfHsp90 inhibitor project, S. cerevisiae, BacTiter-Glo luminescence (AID 504594);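 also: 0% = DMSO neutral control wells and 100% = 20 µM radicicol control wells; higher value means stronger growth inhibition because the sign is flipped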
# Settings: S. cerevisiae expressing PfHsp90, BacTiter-Glo growth, 48 h; at 9.4 µM; active compounds read high
row,Compound,growth inhibition
1,CN(C)C(=O)C(CCN1CCC(O)(c2ccc(Cl)cc2)CC1)(c1ccccc1)c1ccccc1,inactive: 2.45%
2,CSCCC(NC(=O)OC(C)(C)C)C(=O)Oc1ccc2c(=O)c(-c3ccc4c(c3)OCCO4)coc2c1 (stereo unspecified),inactive: -2.29%
3,CC(C(=O)O)c1ccc(-c2ccccc2)c(F)c1 (stereo unspecified),inactive: -7.02%
4,C=CCOc1ccc(C(=O)CC)cc1OC,inactive: -12.7%
5,Cn1c(=O)[nH]c2nnc(-c3ccc(Cl)c(Cl)c3)nc2c1=O,inactive: 1.34%
6,Cn1c(=O)c2nc3ccccc3nc2n(C)c1=O,inactive: -2.91%
7,O=P(O)(O)CP(=O)(O)O,inactive: 0.855%
8,COc1ccc(/C=N\NC(=O)CCc2c(C)n[nH]c2C)c(OC)c1OC,inactive: 7.63%
9,O=C(CCCC(=O)OCC1CCCO1)OCC1CCCO1 (stereo unspecified),inactive: -10.2%
10,Cc1cc(=O)oc(C)c1C(=O)NCCC(C)C,inactive: 1.5%
11,CC(=O)N1N=C(c2cccs2)CC1c1ccc(C)o1 (stereo unspecified),inactive: 15.9%
12,O=C(Cc1c[nH]c2ccccc12)OCCOC(=O)Cc1c[nH]c2ccccc12,inactive: -5.62%
13,Cc1ccc(Nc2ncccc2C(=O)O)cc1C,inactive: -4.41%
14,O=C(CCCCCCCC(=O)c1ccccc1)c1ccccc1,inactive: -4.37%
15,Cc1cc(=O)[nH]c(=S)[nH]1,inactive: 5.04%
16,C=C(C)Cn1c(NCCOC)nc2c1c(=O)[nH]c(=O)n2C,inactive: -4.19%
17,COc1cc2c(cc1OC)/C(=C/c1ccc(Cl)cc1)C(=O)OC2,inactive: -9.89%
18,CC(=O)c1ccc(CCCCCCCCCC(=O)O)s1,inactive: -16.6%
19,COc1ccc(/C=C/C(=O)Nc2ccccc2C(=O)O)cc1OC,inactive: 6.71%
20,COC(=O)c1cc(-c2ccc(OC)c(OC)c2)on1,inactive: -8.12%
21,COC(=O)c1[nH]c(=O)c2ccccc2c1O,inactive: -11.7%
22,CC(=O)N/C(=C/c1ccc2c(c1)OCO2)C(=O)NCCO,inactive: -2.13%
23,CCc1nc2ccccc2c(NC(=O)CN2CC(C)CC(C)C2)c1C (stereo unspecified),inactive: 2.78%
24,Oc1ccc(/C=C/c2cc(O)cc(O)c2)cc1,inactive: -1.18%
25,CNc1nc(Nc2ccccc2)nc(OCC(F)(F)F)n1,inactive: 11.7%
26,COc1cccc(OC)c1C(=O)NCCSC1CCCCC1,inactive: -5.91%

row,Compound,growth inhibition
1,COc1ccc(C(=O)/C=C2/c3ccccc3CC(C)(C)N2C)cc1,inactive: -6.13%
2,O=C(CCC(=O)NCCO)NCCO,inactive: -11.6%
3,Oc1c(Cl)cc(Cl)c(Cl)c1Cc1c(O)c(Cl)cc(Cl)c1Cl,active: 104%
4,CCCCC[C@H](O)/C=C/C1=C(CCCCCCC(=O)O)C(=O)CC1,inactive: -8.84%
5,COc1cccc(-n2c(C)c3c(OC)cccc(=O)c3c2C)c1,inactive: -7.68%
6,Cc1csc(-c2coc3cc(O)cc(C)c3c2=O)n1,inactive: 23.5%
7,COc1ccc(NC(=O)C2C(=O)N(CCO)C3(C)CC2c2ccccc2O3)cc1 (stereo unspecified),inactive: -3.64%
8,Cc1ccc(S(=O)(=O)n2ccnc2)cc1C,inactive: 0.676%
9,CC(C)CC(NC(=O)C1CCCN1C(=O)OC(C)(C)C)C(=O)NCC(N)=O (stereo unspecified),inactive: -3.62%
10,Cc1ncc(C(=O)O)c(C(=O)O)c1N,inactive: 4.62%
11,CN1CCN(CCCN2c3ccccc3Sc3ccc(C(F)(F)F)cc32)CC1,inactive: 0.19%
12,CNC[C@H](O)c1ccc(O)c(O)c1,inactive: 4.99%
13,C[N+]1(C2CCC3CCCC2C3O)CCCCC1 (stereo unspecified),inactive: -8.1%
14,CC(C)[N+]1(C)[C@@H]2CC[C@H]1CC(OC(=O)C(CO)c1ccccc1)C2 (stereo partly specified),inactive: -14.8%
15,COC(=O)c1cc(OC)c(OC)cc1NC(=O)CN1C(=O)c2ccccc2C1=O,inactive: -14.3%
16,Cc1ccc(S(=O)(=O)NC(C(=O)Oc2ccc3c(C(F)(F)F)cc(=O)oc3c2)c2ccccc2)cc1 (stereo unspecified),inactive: -9.05%
17,CN(C(=O)C(Cl)Cl)c1ccc(OC(=O)c2ccco2)cc1,inactive: -1.22%
18,Cc1oc2c(CN3CCCC3)c(O)ccc2c(=O)c1-c1ccc(Cl)cc1,inactive: 0.627%
19,CN(C)CCOC(C)(c1ccccc1)c1ccccn1 (stereo unspecified),inactive: 9.37%
20,COc1ccccc1C(=O)Oc1ccc2c(c1)O/C(=C\c1ccncc1)C2=O,inactive: 11.4%
21,C(=C\c1ccccc1)/CN1CCN(C(c2ccccc2)c2ccccc2)CC1,inactive: 1.92%
22,O=C(C1CCCCC1)N1CC(=O)N2CCc3ccccc3C2C1 (stereo unspecified),inactive: 6.89%
23,CCOC(=O)C1C(=O)OC2(CCOC(C)(C)C2)C1C(=O)OCC (stereo unspecified),inactive: -2.41%
24,Cc1ccc(OCCCCn2ccnc2C)c(C)c1,inactive: -3.77%
25,C=CCc1cc(Cl)ccc1OCCOCCN(C)C,inactive: 0.654%
26,CC(=O)NC1C(OCCOc2ccc(Cl)cc2Cl)OC(COC(C)=O)C(OC(C)=O)C1OC(C)=O (stereo unspecified),inactive: 25.1%

row,Compound,growth inhibition
1,Cn1c(=O)c2c(ncn2Cc2ccccc2)n(C)c1=O,inactive: 14%
2,CCOC(=O)C(NC(=O)CCC(=O)Nc1ccc(S(N)(=O)=O)cc1)C(O)c1ccccc1 (stereo unspecified),inactive: -0.0283%
3,O=c1c(-c2ccc3c(c2)OCCO3)coc2cc(OC3OC(CO)C(O)C(O)C3O)ccc12 (stereo unspecified),inactive: -22.6%
4,Cc1cccc(N2CCN(C(=S)c3ccccc3)CC2)c1,inactive: 26.4%
5,O=c1ccc2c(o1)/C(=C/C=C(Cl)Cl)CCC2,inactive: -2.29%
6,CC(C)CN1CCN(Cc2ccc(C#CC(C)(C)O)cc2)CC1CCO (stereo unspecified),inactive: 15.6%
7,Nc1nc2ccc(OC(F)(F)F)cc2s1,inactive: 0.568%
8,COc1ccc2c(c1)c(CC(=O)O)c(C)n2C(=O)c1ccc(Cl)cc1,inactive: 2.55%
9,O[C@H]1COC2C1OC[C@@H]2O (stereo partly specified),inactive: -2.02%
10,CCc1cccc2c1NC1(CCCC1)CC2C (stereo unspecified),inactive: 0.87%
11,O=C(COc1ccc2ccc(=O)oc2c1)c1ccccc1,inactive: -9.66%
12,COc1ccc(OCc2cccc(C(=O)NN)c2)cc1,inactive: -0.848%
13,C/C(=N\NC(=O)c1ccccc1[N+](=O)[O-])c1ccc(Br)s1,inactive: 2.92%
14,NC(N)=NC(N)=NCCc1ccccc1,inactive: -6.18%
15,CC(NC(=O)c1cccnc1)C(=O)O (stereo unspecified),inactive: -10.5%
16,CC(C)OC(=O)CC1C(=O)NCCN1C(=S)NC(=O)c1cccs1 (stereo unspecified),inactive: 7.79%
17,CC(C)c1ccc2[nH]c3c(c2c1)CCCC3=O,inactive: 0.593%
18,COC(=O)c1cc(Br)c(=O)n(CCc2ccc(O)cc2)c1,inactive: 12.1%
19,Cc1ccc2c(c1)C(CCN)C(=O)N2Cc1ccccc1 (stereo unspecified),inactive: -2.1%
20,CCOC(=O)C1NN=C(C(=O)c2ccccc2)C1c1ccc(Cl)cc1 (stereo unspecified),inactive: 3.31%
21,Cc1cccc2c1CC(C)(C)N/C2=C\C(N)=O,inactive: 1.18%
22,CC(C[N+](C)(C)C)OC(N)=O (stereo unspecified),inactive: 1.14%
23,CN(C)CCN(Cc1ccc(Cl)cc1)c1ccccn1,inactive: 4.52%
24,O=C(c1cccc2ccccc12)C1CCCN(C(=O)CCN2CCCO2)C1 (stereo unspecified),inactive: 0.553%
25,Cc1onc(-c2c(Cl)cccc2Cl)c1C(=O)NC1C(=O)N2C1SC(C)(C)C2C(=O)O (stereo unspecified),inactive: -6.05%
26,CN(CCCN1CCOCC1)Cc1cn(C)nc1-c1ccccc1F,inactive: 7.21%

row,Compound,growth inhibition
1,COC(=O)[C@@H](N)CS,inactive: -1.65%
2,Cc1cn([C@H]2C[C@H](N=[N+]=[N-])[C@@H](CO)O2)c(=O)[nH]c1=O,inactive: -6.73%
3,O=C(CS(=O)(=O)c1ccccc1)c1ccc2c(c1)OCCO2,inactive: -2.75%
4,COc1ccc([C@@H]2Sc3ccccc3N(CCN(C)C)C(=O)[C@@H]2OC(C)=O)cc1,inactive: -1.72%
5,Cc1ccc(C)c(OCCCC(C)(C)C(=O)O)c1,inactive: -1.57%
6,O=C(CCCN1CCC(O)(c2ccc(Cl)cc2)CC1)c1ccc(F)cc1,inactive: 2.51%
7,O=C(NC(=S)Nc1nc(-c2ccccc2)cs1)c1ccco1,inactive: 2.7%
8,C=C(C)COc1ccc(-c2n[nH]c(C)c2-c2ccc(OC)cc2)c(O)c1,inactive: -16.8%
9,COCCOC(=O)C1=C(C)NC(C)=C(C(=O)OC(C)C)C1c1cccc([N+](=O)[O-])c1 (stereo unspecified),inactive: 4.77%
10,CN1C(C(=O)Nc2ccccn2)=C(O)c2ccccc2S1(=O)=O,inactive: 2.41%
11,COc1ccc2c(c1)C(=O)CC(c1ccccc1F)O2 (stereo unspecified),inactive: -2.11%
12,CC1(C)CC(c2csc(N)n2)CCO1 (stereo unspecified),inactive: 3.01%
13,Cc1ccc2c(ccc(=S)n2C)c1,inactive: 0.161%
14,O=C(O)CCCNc1ccc(S(=O)(=O)Nc2ccccc2C(=O)O)cc1C(=O)O,inactive: -1.88%
15,CC1(C)[C@@H](O)CC[C@]2(C)[C@H]3C(=O)C=C4[C@@H]5C[C@@](C)(C(=O)O)CC[C@]5(C)CC[C@@]4(C)[C@]3(C)CC[C@@H]12,inactive: 19.9%
16,COc1cc(C(=O)NCCc2c[nH]c3ccccc23)ccc1OCc1c(C)noc1C,inactive: -2.7%
17,CN(C)CCCNc1ncnc2c1cnn2-c1ccccc1,inactive: -5.01%
18,COc1cc(NC(=O)COc2ccccc2)c(OC)cc1NC(C)=O,inactive: 5.31%
19,CN1/C(=C\C=Nc2ccccc2)C(C)(C)c2ccccc21,inactive: 14%
20,COc1ccc2cc(C3(C)NC(=O)NC3=O)ccc2c1 (stereo unspecified),inactive: 1.64%
21,Clc1ccc2c(c1)[C@H]1OCC[C@H]1[C@@H](c1ccco1)N2,inactive: 1.42%
22,Cc1ccccc1OCCSc1nc2ncnc(N)c2[nH]1,inactive: -2.23%
23,COc1ccc2nc(S(=O)Cc3ncc(C)c(OC)c3C)[nH]c2c1 (stereo unspecified),inactive: -8.25%

# Given with tabs: part of the list above
row	Compound	growth inhibition
19	Cc1ccc2c(c1)C(CCN)C(=O)N2Cc1ccccc1 (stereo unspecified)	inactive: -2.1%
20	CCOC(=O)C1NN=C(C(=O)c2ccccc2)C1c1ccc(Cl)cc1 (stereo unspecified)	inactive: 3.31%
21	Cc1cccc2c1CC(C)(C)N/C2=C\C(N)=O	inactive: 1.18%
22	CC(C[N+](C)(C)C)OC(N)=O (stereo unspecified)	inactive: 1.14%
23	CN(C)CCN(Cc1ccc(Cl)cc1)c1ccccn1	inactive: 4.52%
24	O=C(c1cccc2ccccc12)C1CCCN(C(=O)CCN2CCCO2)C1 (stereo unspecified)	inactive: 0.553%
25	Cc1onc(-c2c(Cl)cccc2Cl)c1C(=O)NC1C(=O)N2C1SC(C)(C)C2C(=O)O (stereo unspecified)	inactive: -6.05%
26	CN(CCCN1CCOCC1)Cc1cn(C)nc1-c1ccccc1F	inactive: 7.21%
1	COC(=O)[C@@H](N)CS	inactive: -1.65%
2	Cc1cn([C@H]2C[C@H](N=[N+]=[N-])[C@@H](CO)O2)c(=O)[nH]c1=O	inactive: -6.73%
3	O=C(CS(=O)(=O)c1ccccc1)c1ccc2c(c1)OCCO2	inactive: -2.75%
4	COc1ccc([C@@H]2Sc3ccccc3N(CCN(C)C)C(=O)[C@@H]2OC(C)=O)cc1	inactive: -1.72%
5	Cc1ccc(C)c(OCCCC(C)(C)C(=O)O)c1	inactive: -1.57%
6	O=C(CCCN1CCC(O)(c2ccc(Cl)cc2)CC1)c1ccc(F)cc1	inactive: 2.51%
7	O=C(NC(=S)Nc1nc(-c2ccccc2)cs1)c1ccco1	inactive: 2.7%
8	C=C(C)COc1ccc(-c2n[nH]c(C)c2-c2ccc(OC)cc2)c(O)c1	inactive: -16.8%
9	COCCOC(=O)C1=C(C)NC(C)=C(C(=O)OC(C)C)C1c1cccc([N+](=O)[O-])c1 (stereo unspecified)	inactive: 4.77%
10	CN1C(C(=O)Nc2ccccn2)=C(O)c2ccccc2S1(=O)=O	inactive: 2.41%
11	COc1ccc2c(c1)C(=O)CC(c1ccccc1F)O2 (stereo unspecified)	inactive: -2.11%
12	CC1(C)CC(c2csc(N)n2)CCO1 (stereo unspecified)	inactive: 3.01%
13	Cc1ccc2c(ccc(=S)n2C)c1	inactive: 0.161%
14	O=C(O)CCCNc1ccc(S(=O)(=O)Nc2ccccc2C(=O)O)cc1C(=O)O	inactive: -1.88%
15	CC1(C)[C@@H](O)CC[C@]2(C)[C@H]3C(=O)C=C4[C@@H]5C[C@@](C)(C(=O)O)CC[C@]5(C)CC[C@@]4(C)[C@]3(C)CC[C@@H]12	inactive: 19.9%
16	COc1cc(C(=O)NCCc2c[nH]c3ccccc23)ccc1OCc1c(C)noc1C	inactive: -2.7%
17	CN(C)CCCNc1ncnc2c1cnn2-c1ccccc1	inactive: -5.01%
18	COc1cc(NC(=O)COc2ccccc2)c(OC)cc1NC(C)=O	inactive: 5.31%
19	CN1/C(=C\C=Nc2ccccc2)C(C)(C)c2ccccc21	inactive: 14%
20	COc1ccc2cc(C3(C)NC(=O)NC3=O)ccc2c1 (stereo unspecified)	inactive: 1.64%
21	Clc1ccc2c(c1)[C@H]1OCC[C@H]1[C@@H](c1ccco1)N2	inactive: 1.42%
22	Cc1ccccc1OCCSc1nc2ncnc(N)c2[nH]1	inactive: -2.23%

# — PubChem BioAssay AID504594 (Broad Institute, 2011)
